# Measured values published in PubChem BioAssay (NCATS).
# The list shows a part of the results, in another mix than the full data. Inconclusive results are not listed. Active and inactive are the calls of the source. Calls follow the shape of the dose curve; as a rule, active = well fitted cell-killing curve with a large enough effect; inconclusive = small, poorly fitted or top-dose-only effect; inactive = flat fitted curve, though single readings scatter.
# How the values were obtained:
# [1] = Quantitative highthroughput screen to assess conditional lethalithy of P12 Ichikawa cells grown in Human Plasma-Like Medium with dialyzed fetal bovine serum (HPLM+ds) (AID 1963879); details: viability, ATP luminescence, 48 h
# How it was run: (§1)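 Each medium arm—HPLM with 10% dialyzed FBS, or RPMI1640 with 5 mM glucose and 10% untreated or dialyzed FBS—was screened against an 11-point, 3-fold compound titration for 48 h at 37 °C, with CellTiter-Glo luminescence as endpoint.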
# [2] = Quantitative highthroughput screen to assess conditional lethalithy of P12 Ichikawa cells grown in RPMI1640 with dialyzed fetal bovine serum (RPMI+ds) (AID 1963880); details: P12-Ichikawa viability, ATP luminescence, 48 h
# How it was run: as §1
# [3] = Quantitative highthroughput screen to assess conditional lethalithy of P12 Ichikawa cells grown in RPMI1640 with untreated serum (RPMI+s) (AID 1963881); details: viability, ATP luminescence, 48 h
# From the text: Assay Provider: Jason Cantor Ph.D.
# Department of Biochemistry
# University of Wisconsin-Madison, Madison, WI, USA
# Chemical screening studies have identified drug sensitivities across hundreds of cancer cell lines but most putative therapeutics fail to translate. Discovery and development of drug candidates in models that more accurately reflect nutrient levels in human blood is a major challenge. Here we performed high-throughput screens in conventional versus Human Plasma-Like Medium (HPLM) to identify compounds that were "missed" when screening using the artificial culture condition. Sets of conditional anticancer compounds spanned phases of clinical development and included non-oncology drugs were assessed. […] We also traced conditional phenotypes for several chemotherapeutics to availability of HPLM-specific metabolites and confirmed others for compounds whose reported targets are encoded by nonessential genes. Our findings establish generalizable strategies for exploiting conditional lethality in HPLM to reveal therapeutic candidates and mechanisms of action in cancer cells. […]
# 6; Detection; Luminescence, Viewlux PerkinElmer. […]
# 6. The luminescence signal was measured using a ViewLux (PerkinElmer) multiplate reader with a 2 second exposure time per plate. […]
# Also: nearly all actives have a fitted effect of over 35% in size.
# Potency is read from the fitted curve at half-maximal effect.
SMILES,Potency [1],Potency [2],Potency [3]
NCCCC(O)(P(=O)(O)O)P(=O)(O)O,active: 9.35 µM,–,–
CC(C)[N+]1(C)[C@@H]2CC[C@H]1CC(OC(=O)C(CO)c1ccccc1)C2 (some centres undefined),active: 4.18 µM,active: 9.35 µM,active: 11.8 µM
